Reference: PubChem BioAssay AID1259270 (Sanger Institute, 2017)
Screen: 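Follow-up of kinome hits for synergy with three anchor drugs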 (follow-up of hits). System: human SNU-C5 colorectal cancer cells. Knock-down reagent: single siRNA against human genes. Treatment: anchor drugs added after knock-down: BYL719 1 µM, cetuximab 5 µg/ml or trametinib 10 nM, or DMSO vehicle. Read-out: 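Replicate survival relative to non-targeting pool 2, then averaged; anchor drug added after silencing; synergy score weighs combination against each single treatment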. Direction: synergy score with BYL719 and synergy score with cetuximab and synergy score with trametinib: higher = stronger synergy (extra killing) with the drug. Rule for the call: 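Synergy with at least one drug when any of the three synergy scores is over 0.10; otherwise no synergy with any drug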. Calls: active = synergy with at least one drug; inactive = no synergy with any drug.
Here is a random part of 160 reagents. 76 of all reagents (48%) were called active. 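Four separate siRNAs per gene; calls are per siRNA in one cell line, looser than gene-level validation across several lines.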 A number with no mark means an inactive call. Reagents against one gene are numbered here. Not all columns of the deposit are shown. Not given: the amount of reagent, the time to read-out.

Knock-down of PINK1 #1 gave: synergy score with BYL719 = -0.256; synergy score with cetuximab -0.24; synergy score with trametinib 0.0534. PINK1 #2 scored synergy score with BYL719 = 0.058 (active); synergy score with cetuximab 0.0455; synergy score with trametinib 0.276. With knock-down of PINK1 #3 the results were synergy score with BYL719 = 0.0827 (active); synergy score with cetuximab 0.147; synergy score with trametinib 0.12. For PINK1 #4, the entry reads synergy score with BYL719 = 0.218 (active); synergy score with cetuximab 0.125; synergy score with trametinib 0.379. Against PAK1 #1 the deposit lists synergy score with BYL719 = -0.139 (active); synergy score with cetuximab 0.109; synergy score with trametinib 0.307. With knock-down of PAK1 #2, the record shows synergy score with BYL719 = -0.0993; synergy score with cetuximab -0.0915; synergy score with trametinib -0.116.

With knock-down of PAK1 #3 the results were synergy score with BYL719 = 0.0393 (active); synergy score with cetuximab -0.208; synergy score with trametinib 0.316. After knock-down of PAK1 #4, the record shows synergy score with BYL719 = -0.182; synergy score with cetuximab -0.0724; synergy score with trametinib -0.0885. Knock-down of BMPR2 #1 gave: synergy score with BYL719 = 0.118 (active); synergy score with cetuximab 0.0804; synergy score with trametinib -0.026. For BMPR2 #2, the values are synergy score with BYL719 = -0.183; synergy score with cetuximab -0.0379; synergy score with trametinib -0.336. With knock-down of BMPR2 #3 the results were synergy score with BYL719 = -0.257; synergy score with cetuximab -0.108; synergy score with trametinib -0.325. With knock-down of BMPR2 #4 the results were synergy score with BYL719 = -0.167; synergy score with cetuximab 0.0824; synergy score with trametinib -0.118.

With knock-down of IKBKB #1, the record shows synergy score with BYL719 = -0.207; synergy score with cetuximab -0.133; synergy score with trametinib -0.349. For IKBKB #2 the deposit lists synergy score with BYL719 = -0.0262; synergy score with cetuximab 0.0169; synergy score with trametinib 0.075. Against IKBKB #3, the values are synergy score with BYL719 = -0.359; synergy score with cetuximab -0.0966; synergy score with trametinib -0.252. Depletion of IKBKB #4 gave: synergy score with BYL719 = -0.127; synergy score with cetuximab -0.0224; synergy score with trametinib 0.0575. Silencing of HSPB8 #1 resulted in: synergy score with BYL719 = -0.096 (active); synergy score with cetuximab 0.0625; synergy score with trametinib 0.278. After knock-down of HSPB8 #2, the record shows synergy score with BYL719 = -0.262; synergy score with cetuximab -0.0459; synergy score with trametinib 0.0668.

With knock-down of HSPB8 #3, the screen gave synergy score with BYL719 = -0.109; synergy score with cetuximab 0.0362; synergy score with trametinib -0.0825. For HSPB8 #4, the entry reads synergy score with BYL719 = 0.103 (active); synergy score with cetuximab -0.122; synergy score with trametinib 0.0823. For AK2 #1, the values are synergy score with BYL719 = -0.123; synergy score with cetuximab -0.116; synergy score with trametinib -0.268. With knock-down of AK2 #2, the screen gave synergy score with BYL719 = 0.0291 (active); synergy score with cetuximab -0.111; synergy score with trametinib 0.177. For AK2 #3 the deposit lists synergy score with BYL719 = -0.0888 (active); synergy score with cetuximab -0.0233; synergy score with trametinib 0.166. AK2 #4 gave synergy score with BYL719 = -0.313; synergy score with cetuximab -0.0757; synergy score with trametinib 0.075.

Look-ups from the list.
BMPR2 #4, synergy score with cetuximab = 0.0824
For “synergy score with trametinib”, IKBKB #1 has -0.349
